Patent publication US7553484B2, “Modulating neuronal outgrowth via the major histocompatibility complex class I (MHC I) molecule” (The Regents of the University of California, priority 2001, dated 2009)
At least one compound was matched to its structure with a doubt left.

Test system: retinal explant neurite outgrowth
Test: Retina (alone) explant culture with and without recombinant MHC I (rsMHC I)
Type: cell-based, mouse
Conditions: for neurite outgrowth in cultures containing rsMHC I, compound added vs rsMHC I alone: Rp-cAMPS 20 uM, 3 days
Experimental: To rule out the possibility that the MHC I-tg thalami inhibit retinal growth indirectly due to an alteration in the milieu of neuroactive molecules they secrete, wt retinas were cultured alone, in the presence, or absence of recombinantly produced MHC I D^b (rMHC I). The rMHC I was obtained by transfecting COS cells with a recombinant plasmid that directs the expression of a MHC I D^b lacking a membrane anchor and harvesting the conditioned media.
A truncated MHC I ^Db mini-gene (containing exons 1-4 plus a stop codon) was subcloned into pIRES (Invitrogen). Due to the lack of a transmembrane spanning region (exons 5 and 6), this MHC I molecule is secreted. COS cells were transfected (using lipofectamine, GIBCO) with the parental plasmid, or the plasmid encoding soluble MHC I D^b. […] Forty eight hours later, the conditioned media was harvested and added to fresh explant co-cultures of wt retina and thalamus at final dilutions of 1:1, 1:4, 1:20 or 1:100. To some cultures, monoclonal antibodies to MHCI D^b or D^k were added to both the matrigel (before its solidification) and the media (0.005 mg/ml). Both the conditioned media and the antibodies were coded. The co-cultures were incubated for 4-5 days, fixed, and scored in a blinded fashion as described above. Duplicates of each group were tested simultaneously in 4 separate experiments.
E14 day embryos from C57Bl6 and Balb/c mice were dissected in Leibovitz's L-15 media (Gibco BRL). The retinas were isolated and placed in a matrigel matrix (Growth Factor Reduced Basement membrane matrix, Collaborative Biomedical Products) in a chamber slide (Fisher LabTech). The slides were then incubated at 37° C. for 60 minutes to solidify the gel. Neurobasal medium (Gibco BRL), containing L-glutamine, antibiotics and 1× B27 supplement) was added to each chamber (0.25 ml). Inhibition of axon outgrowth by rsMHC I was tested by addition of conditioned culture media from COS cells containing rsMHC I or control media to the normal culture media. Compounds that modulate cAMP levels were added at the following concentrations to the matrigel and the culture media: Forskolin (5 uM), a drug that activates adenyl cyclase and endogenous production of cAMP; and Rp-cAMPS (20 uM), the R diasteriomer of adenosine 3′,5′-(cyclic) phosphorothioate, a non-hydrolyzable antagonist of cAMP. The cultures were incubated further at 37° C., 5% CO2. After incubating for 3 days, the experiment was terminated by replacing the buffer with 4% PFA and storing the slides at 4° C. Statistical Analysis was done by Student's test.

[1] = ACPD 50 uM, cAMP 20 uM, Forskolin 5 uM

With `C=C[C@@]1(C)CC(=O)[C@]2(O)[C@@]3(C)[C@@H](O)CCC(C)(C)[C@@H]3[C@H](O)[C@H](OC(C)=O)[C@@]2(C)O1` [Forskolin] the “neurite outgrowth with rsMHC I plus compound compared with control levels” value [1] was “did not return the outgrowth to control levels”, the “overall protection against the effects of rsMHC I (summary)” value (FIG. 5) was “non-significant trend towards protection” and the “neurite outgrowth in cultures containing rsMHC I, compound added vs rsMHC I alone” value [1] was “partially neutralize the inhibitory action of rMHC I”. The “neurite outgrowth in cultures containing rsMHC I, compound added vs rsMHC I alone” value (ACPD 50 uM, cAMP 20 uM, Forskolin 5 uM, listed as forskolin) was “tended to enhance neurite outgrowth”.
